PubChem BioAssay
Inconclusive results, whose numbers are uncertain, are shown with a selection of clear calls. For some assays here: Where the call is inconclusive, the potency comes from a doubtful curve fit. The source made the active and inactive calls. Unless noted, no cut-off is given here; in the data, nearly all actives have AC50 up to about 26 µM.

What was measured:
[1] = growth inhibition of DIPG glioma cells, dose response, cell-based, SU-DIPG-XVII, MIPE5.0, CellTiter-Glo, qHTS (AID 1347060); settings: SU-DIPG-XVII viability, CellTiter-Glo ATP luminescence;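 for AC50: cells exposed to compound for 48 hours before viability readout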
[2] = growth inhibition of DIPG glioma cells, dose response, cell-based, SU-DIPG-XIII, MIPE4.0, CellTiter-Glo, qHTS (AID 1347061; cut-off not given, nearly all actives have AC50 up to about 37 µM;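 note: cells exposed to compound for 48 hours before readout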); settings: SU-DIPG-XIII viability, CellTiter-Glo ATP luminescence
[3] = growth inhibition of DIPG glioma cells, dose response, cell-based, JHH-DIPG-1, MIPE4.0, CellTiter-Glo, qHTS (AID 1347062; cut-off not given, nearly all actives have AC50 up to about 27 µM;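 for AC50: cells exposed to compound for two days before readout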); settings: JHH-DIPG-1 viability, CellTiter-Glo ATP luminescence
[4] = growth inhibition of DIPG glioma cells, dose response, cell-based, SU-DIPG-IV, MIPE4.0, CellTiter-Glo, qHTS (AID 1347063; cut-off not given, nearly all actives have AC50 up to about 30 µM;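 note: compound exposure lasted 48 hours before the viability readout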); settings: SU-DIPG-IV viability, CellTiter-Glo ATP luminescence
[5] = growth inhibition of DIPG glioma cells, dose response, cell-based, SU-DIPG-XIII, MIPE5.0, CellTiter-Glo, qHTS (AID 1347064; cut-off not given, nearly all actives have AC50 up to about 23 µM;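 for AC50: cells exposed to compound for 48 hours before the viability read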); settings: SU-DIPG-XIII viability, CellTiter-Glo ATP luminescence
[6] = viability loss in pontine glioma line – cell-based, SU-DIPG-XXV, MIPE5.0, CellTiter-Glo, qHTS, dose response (AID 1347065); settings: CellTiter-Glo ATP luminescence;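 note: cells exposed to compound for 48 hours before ATP readout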
[7] = SU-DIPG-VI glioma cell viability, MIPE4.0 library, CellTiter-Glo luminescence, qHTS (AID 1347066; cut-off not given, nearly all actives have AC50 up to about 30 µM;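 note: cells exposed to compound for 48 hours before readout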); settings: CellTiter-Glo ATP luminescence
[8] = JHH-DIPG-1 glioma cell viability, MIPE5.0 library, CellTiter-Glo luminescence, qHTS (AID 1347067); settings: JHH-DIPG-1 glioma viability, CellTiter-Glo ATP luminescence;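 note: cells exposed to compound for 48 hours before readout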
[9] = SU-DIPG-XXV glioma cell viability, MIPE5.0 library, qHTS (AID 1347068; cut-off not given, nearly all actives have IC50 up to about 30 µM;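 for IC50: cells exposed to compound for 48 hours before viability readout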)
[10] = inhibitors of polyQ aggregate elongation, biochemical, solid-phase synthetic aggregates, QA3 (AID 1585; call rule not given here); settings: biotin-polyQ incorporation, at 100 µM, active compounds read high
[11] = polyglutamine aggregation reduction, turbidity readout, qthio, single concentration 25 µM screen (AID 1588; call rule not given here); settings: at 25 µM, active compounds read low
[12] = enhancers of SMN2 over SMN1 splicing, cell-based, SMN2/SMN1 luciferase reporters (AID 1598; call rule not given here); settings: SMN2 vs SMN1 luciferase splicing reporter cells; at 10 µM; active compounds read high

COC(=O)C1=C(C)NC(C)=C(C(=O)OCCN2CCN(C(c3ccccc3)c3ccccc3)CC2)C1c1cccc([N+](=O)[O-])c1 (stereo not drawn)
AC50 [1]: inconclusive: 1.32 µM [cytotoxic]
AC50 [2]: inconclusive: 23.5 µM [cytotoxic]
outcome [3]: inactive
outcome [4]: inactive
AC50 [5]: active: 8.33 µM
AC50 [6]: active: 5.9 µM
outcome [7]: inactive
AC50 [8]: active: 13.2 µM
IC50 [9]: active: 8.33 µM

Cc1nc(NC(=O)N2CCC[C@H]2C(N)=O)sc1-c1ccnc(C(C)(C)C(F)(F)F)c1
AC50 [1]: active: 5.9 µM
AC50 [2]: active: 1.87 µM
AC50 [3]: inconclusive: 0.743 µM [cytotoxic]
AC50 [4]: active: 1.05 µM
AC50 [5]: active: 4.68 µM
AC50 [6]: active: 3.32 µM
AC50 [7]: active: 1.66 µM
AC50 [8]: inconclusive: 3.32 µM [cytotoxic]
IC50 [9]: inconclusive: 9.34 µM [cytotoxic]

CC(C)(C)NC(=O)[C@H]1CC[C@H]2[C@@H]3CC[C@H]4NC(=O)C=C[C@]4(C)[C@H]3CC[C@]12C
outcome [1]: inactive
AC50 [2]: active: 11.8 µM
AC50 [3]: inconclusive: 20.9 µM [cytotoxic]
AC50 [4]: inconclusive: 8.33 µM [cytotoxic]
AC50 [5]: inconclusive: 20.9 µM [cytotoxic]
AC50 [6]: inconclusive: 0.00296 µM [cytotoxic]
outcome [7]: inactive
outcome [8]: inactive
outcome [9]: inactive

CC(=O)Nc1ccc([C@H](C)C(=O)Nc2ncc(C(C)C)s2)cc1
AC50 [1]: active: 0.934 µM
AC50 [2]: active: 4.69 µM
AC50 [3]: inconclusive: 2.09 µM [cytotoxic]
AC50 [4]: active: 2.64 µM
AC50 [5]: active: 2.95 µM
AC50 [6]: active: 1.86 µM
AC50 [7]: inconclusive: 0.935 µM [cytotoxic]
AC50 [8]: active: 3.32 µM
IC50 [9]: active: 2.95 µM

Oc1cc(-c2nc(-c3ccccc3)[nH]c2-c2ccncc2)ccc1Cl
AC50 [1]: inconclusive: 4.68 µM [cytotoxic]
AC50 [2]: active: 16.6 µM
AC50 [3]: active: 13.2 µM
AC50 [4]: active: 2.35 µM
AC50 [5]: active: 9.34 µM
AC50 [6]: inconclusive: 20.9 µM [cytotoxic]
AC50 [7]: inconclusive: 14.8 µM [cytotoxic]
AC50 [8]: inconclusive: 3.32 µM [cytotoxic]
IC50 [9]: active: 23.5 µM

CC1=C(C(=O)Nc2cc3cn[nH]c3cc2F)C(c2ccc(C(F)(F)F)cc2)CC(=O)N1 (stereo not drawn)
outcome [1]: inactive
outcome [2]: inactive
AC50 [3]: inconclusive: 0.935 µM
outcome [4]: inactive
outcome [5]: inactive
AC50 [6]: inconclusive: 13.2 µM [cytotoxic]
AC50 [7]: inconclusive: 5.26 µM
outcome [8]: inactive
outcome [9]: inactive

CN1C(=O)C[C@H](C(=O)N[C@@H](Cc2cnc[nH]2)C(=O)N2CCC[C@H]2C(N)=O)NC1=O
AC50 [1]: inconclusive: 37.2 µM [cytotoxic]
outcome [2]: inactive
AC50 [3]: inconclusive: 20.9 µM [cytotoxic]
AC50 [4]: inconclusive: 11.8 µM [cytotoxic]
AC50 [5]: inconclusive: 11.8 µM [cytotoxic]
AC50 [6]: inconclusive: 7.42 µM [cytotoxic]
AC50 [7]: inconclusive: 37.2 µM [cytotoxic]
AC50 [8]: inconclusive: 0.00118 µM
IC50 [9]: inconclusive: 0.00118 µM

Cc1[nH]c(=O)c(C#N)cc1-c1ccncc1
outcome [1]: inactive
AC50 [2]: inconclusive: 33.2 µM [cytotoxic]
AC50 [3]: inconclusive: 37.2 µM [cytotoxic]
AC50 [4]: inconclusive: 11.8 µM [cytotoxic]
AC50 [5]: inconclusive: 0.295 µM [cytotoxic]
outcome [6]: inactive
AC50 [7]: inconclusive: 20.9 µM [cytotoxic]
outcome [8]: inactive

CCC(C)(C)C(=O)O[C@H]1C[C@@H](C)C=C2C=C[C@H](C)[C@H](CC[C@@H]3C[C@@H](O)CC(=O)O3)[C@H]21
AC50 [1]: inconclusive: 4.68 µM [cytotoxic]
outcome [2]: inactive
AC50 [3]: inconclusive: 3.72 µM [cytotoxic]
AC50 [4]: active: 18.7 µM
AC50 [5]: inconclusive: 1.48 µM [cytotoxic]
AC50 [6]: inconclusive: 18.6 µM [cytotoxic]
AC50 [7]: inconclusive: 23.5 µM [cytotoxic]
AC50 [8]: inconclusive: 20.9 µM [cytotoxic]

COc1ccc(-c2nc3ccc(C4=NNC(=O)CC4C)cc3[nH]2)cc1 (stereo not drawn)
AC50 [1]: active: 16.6 µM
outcome [2]: inactive
outcome [3]: inactive
AC50 [4]: inconclusive: 0.00935 µM
AC50 [5]: inconclusive: 2.63 µM [cytotoxic]
AC50 [6]: inconclusive: 33.2 µM [cytotoxic]
outcome [7]: inactive
AC50 [8]: inconclusive: 16.6 µM [cytotoxic]
IC50 [9]: inconclusive: 20.9 µM [cytotoxic]

N#Cc1ccc(Oc2ccc3c(c2)COB3O)cc1
AC50 [1]: inconclusive: 37.2 µM [cytotoxic]
AC50 [2]: inconclusive: 29.6 µM [cytotoxic]
AC50 [3]: inconclusive: 20.9 µM [cytotoxic]
outcome [4]: inactive
outcome [5]: inactive
outcome [6]: inactive
AC50 [8]: inconclusive: 9.34 µM [cytotoxic]

Clc1ccc(CCC(Cn2ccnc2)Sc2c(Cl)cccc2Cl)cc1 (stereo not drawn)
AC50 [1]: inconclusive: 13.2 µM [cytotoxic]
AC50 [2]: inconclusive: 33.2 µM [cytotoxic]
AC50 [3]: inconclusive: 20.9 µM [cytotoxic]
AC50 [4]: inconclusive: 23.5 µM [cytotoxic]
AC50 [5]: inconclusive: 11.8 µM [cytotoxic]
outcome [6]: inactive
AC50 [7]: inconclusive: 37.2 µM [cytotoxic]
IC50 [9]: inconclusive: 33.2 µM [cytotoxic]

C=CC[N+]1([C@H]2C[C@H]3[C@@H]4CC[C@H]5C[C@H](O)[C@@H](N6CCOCC6)C[C@]5(C)[C@H]4CC[C@]3(C)[C@H]2OC(C)=O)CCCC1
outcome [1]: inactive
AC50 [2]: inconclusive: 23.5 µM [cytotoxic]
outcome [3]: inactive
AC50 [4]: inconclusive: 0.00105 µM
outcome [5]: inactive
AC50 [6]: inconclusive: 11.8 µM
AC50 [7]: inconclusive: 0.00105 µM
outcome [9]: inactive

C[C@]12CC[C@@H]3c4ccc(O)cc4C[C@@H](CCCCCCCCCS(=O)CCCC(F)(F)C(F)(F)F)[C@H]3[C@@H]1CC[C@@H]2O (stereo partly drawn)
AC50 [1]: inconclusive: 2.35 µM [cytotoxic]
outcome [2]: inactive
outcome [3]: inactive
AC50 [4]: inconclusive: 10.5 µM [cytotoxic]
AC50 [5]: inconclusive: 20.9 µM [cytotoxic]
outcome [6]: inactive
outcome [8]: inactive

C#CCC(Cc1cnc2nc(N)nc(N)c2n1)c1ccc(C(=O)N[C@@H](CCC(=O)O)C(=O)O)cc1 (stereo partly drawn)
AC50 [1]: inconclusive: 0.00296 µM [cytotoxic]
AC50 [2]: inconclusive: 23.5 µM [cytotoxic]
AC50 [3]: inconclusive: 0.235 µM [cytotoxic]
AC50 [4]: inconclusive: 0.166 µM [cytotoxic]
AC50 [5]: inconclusive: 0.0059 µM [cytotoxic]
AC50 [6]: inconclusive: 0.0105 µM [cytotoxic]
AC50 [7]: inconclusive: 0.59 µM [cytotoxic]
IC50 [9]: inconclusive: 20.9 µM

Cc1c(C)c2c(c(C)c1O)CCC(C)(COc1ccc(CC3SC(=O)NC3=O)cc1)O2 (stereo not drawn)
AC50 [1]: inconclusive: 37.2 µM [cytotoxic]
AC50 [2]: inconclusive: 2.35 µM
outcome [3]: inactive
AC50 [4]: inconclusive: 26.4 µM [cytotoxic]
outcome [5]: inactive
AC50 [6]: inconclusive: 0.0166 µM [cytotoxic]
outcome [8]: inactive

COc1ccc2c(c1)CC[C@@H](CN(C)CC(=O)O)[C@H]2c1ccccc1
outcome [1]: inactive
AC50 [2]: inconclusive: 8.33 µM [cytotoxic]
AC50 [3]: inconclusive: 7.43 µM [cytotoxic]
AC50 [4]: inconclusive: 0.132 µM [cytotoxic]
AC50 [5]: inconclusive: 13.5 µM
outcome [6]: inactive
outcome [8]: inactive

O=c1c(O)c(-c2ccc(O)c(O)c2)oc2cc(O)cc(O)c12
inhibition [10]: inconclusive: 9.08%
aggregation (% of control) [11]: inconclusive: 105%
SMN2/SMN1 luciferase ratio [12]: inconclusive: 0.87
outcome [1]: inactive
AC50 [2]: inconclusive: 37.2 µM [cytotoxic]
AC50 [3]: inconclusive: 23.5 µM [cytotoxic]
AC50 [4]: inconclusive: 37.2 µM [cytotoxic]
outcome [5]: inactive
outcome [6]: inactive
AC50 [7]: inconclusive: 18.7 µM [cytotoxic]
outcome [9]: inactive

COc1cccc([C@@H](C)NCCCc2ccccc2Cl)c1
AC50 [1]: inconclusive: 26.3 µM [cytotoxic]
AC50 [2]: inconclusive: 14.8 µM [cytotoxic]
AC50 [3]: inconclusive: 33.2 µM [cytotoxic]
AC50 [4]: inconclusive: 23.5 µM [cytotoxic]
outcome [5]: inactive
AC50 [6]: inconclusive: 0.00105 µM [cytotoxic]
outcome [8]: inactive

CC(C)(C(=O)NCC(F)(F)C(F)(F)F)C(=O)N[C@@H]1C(=O)Nc2ccccc2-c2ccccc21
outcome [1]: inactive
AC50 [2]: inconclusive: 23.5 µM [cytotoxic]
AC50 [3]: inconclusive: 0.166 µM [cytotoxic]
AC50 [4]: inconclusive: 0.296 µM [cytotoxic]
outcome [5]: inactive
AC50 [6]: inconclusive: 0.00166 µM [cytotoxic]
outcome [7]: inactive
outcome [9]: inactive

CN(C(Cc1ccc(OS(=O)(=O)c2cccc3cnccc23)cc1)C(=O)N1CCN(c2ccccc2)CC1)S(=O)(=O)c1cccc2cnccc12 (stereo not drawn)
outcome [1]: inactive
AC50 [2]: inconclusive: 20.9 µM [cytotoxic]
outcome [3]: inactive
AC50 [4]: inconclusive: 14.8 µM [cytotoxic]
outcome [5]: inactive
AC50 [6]: inconclusive: 5.9 µM [cytotoxic]
outcome [8]: inactive

Cc1nc(N)sc1-c1ccnc(Nc2ccc(N3CCOCC3)cc2)n1
AC50 [1]: inconclusive: 3.32 µM [cytotoxic]
AC50 [2]: inconclusive: 16.6 µM [cytotoxic]
AC50 [3]: inconclusive: 33.2 µM [cytotoxic]
AC50 [4]: active: 20.9 µM
AC50 [5]: active: 5.9 µM
AC50 [6]: active: 2.63 µM
AC50 [7]: inconclusive: 26.4 µM [cytotoxic]
IC50 [9]: inconclusive: 1.05 µM [cytotoxic]

CC(C)c1ccc2oc3nc(N)c(C(=O)O)cc3c(=O)c2c1
AC50 [1]: inconclusive: 14.8 µM [cytotoxic]
outcome [2]: inactive
outcome [3]: inactive
AC50 [4]: inconclusive: 0.0166 µM
outcome [5]: inactive
outcome [6]: inactive
outcome [8]: inactive
